Assay results from the supplement of paper PMC12889115.
The other results are listed elsewhere or left out. These are raw signals, not scaled to a control.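 First-pass screen: polymyxin B was added at a level that permeabilizes the Salmonella outer membrane while sparing the inner membrane. DMSO wells, with and without polymyxin B, defined maximum growth. Because plates differed from one another, each plate's data were ranked separately and the compounds with the lowest OD600 were carried forward as hits.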

Test system: Salmonella enterica serovar Typhimurium SL1344
Experiment: bacterial growth OD600 after 18 h with compound and polymyxin B; higher = more bacterial growth (less inhibition)
Conditions: 50 µM, Mueller-Hinton broth

Structure (SMILES) | bacterial growth OD600 (polymyxin B 0.75 µg/mL) | bacterial growth OD600 (polymyxin B 1 µg/mL)
CCC1CN(CC(=O)NCc2scnc2-c2ccccc2)Cc2cc(OC)ccc2O1 (stereo unspecified) | 0.794 | 
CCOC(=O)C1(CCCc2ccccc2)CCCN(C(=O)CCc2cn[nH]c2)C1 (stereo unspecified) |  | 0.832
O=C(NC1CCCc2nc(N3CCC(CO)CC3)ncc21)c1cccs1 (stereo unspecified) | 0.811 | 
Cc1ccccc1OCC1CCCN(Cc2nc(Cc3ccccc3)no2)C1 (stereo unspecified) |  | 0.807
CSCCC(=O)N1CCC2(CCCN(Cc3cccc(F)c3F)C2=O)C1 (stereo unspecified) |  | 0.976
CCO[C@H]1[C@H](NC(=O)CC)c2ccccc2C12CCN(C(=O)c1cc(OC)nc3ccccc13)CC2 | 0.818 | 
CCOC(=O)CCNC(=O)N(C)CC1CCCN(CCc2ccc(OC)cc2)C1 (stereo unspecified) |  | 0.982
CN(Cc1nccn1C)c1nc2nonc2nc1NCc1cccs1 |  | 0.921
CCOC(=O)C1(Cc2cccc(Cl)c2)CCCN(C(=O)c2cccc3nccnc23)C1 (stereo unspecified) |  | 0.874
CC(C)C1CCN(CC2(O)CCCN(Cc3ccc(F)cc3)C2=O)CC1 (stereo unspecified) |  | 0.9
Cc1nc(N2CCC(C(=O)NCC3CCN(C4CCCC4)CC3)CC2)nc2ccc(C(C)C)cc12 | 0.856 | 
CNc1cc(C(=O)NCc2cccnc2Oc2ccccc2OC)ccn1 | 0.945 | 
COc1cc(CC2(CCC(=O)N(C)Cc3nc4ccc(F)cc4[nH]3)CCC(=O)N2)ccc1F (stereo unspecified) | 0.761 | 
CCCCn1c(CN(C)Cc2ccccc2OC)cnc1S(=O)(=O)CC1CCC1 |  | 0.911
COc1ccc(Cl)cc1NC(=O)CCC1CCCN(C(=O)c2csc(C)n2)C1 (stereo unspecified) |  | 0.92
CCOc1ccccc1CN1CCN(Cc2cccc(-n3cccn3)c2)CC1CCO (stereo unspecified) |  | 0.833

Structure (SMILES) | bacterial growth OD600 (polymyxin B 0.75 µg/mL) | bacterial growth OD600 (polymyxin B 1 µg/mL)
COc1ccc(F)c(CN2CCC(C(Cc3ccc(F)cc3F)N(C)C(=O)c3ccco3)CC2)c1 (stereo unspecified) | 0.66 | 
Cc1nc(N(C)C2CCCCC2)ncc1C(C)NC(=O)CCc1cccnc1 (stereo unspecified) | 0.925 | 
CCOc1ccc2nc(N3CCCN(Cc4cccc(C(C)=O)c4)CC3)nc(C)c2c1 | 0.866 | 
O=C(C1CCC1)N1CCCC(CCc2ccccc2)C1 (stereo unspecified) | 0.505 | 
Cc1nc2ccccc2n1Cc1cc(C(=O)N(C)Cc2cccnc2)n[nH]1 |  | 0.984
Cc1cc(C)nc(CCNc2nncc(-c3ccccc3C)n2)n1 |  | 1.03
O=C(c1ccoc1)N1CCc2[nH]nc(C(c3ccccc3)c3ccccc3)c2C1 | 0.548 | 
O=C(c1cccc(Cl)c1F)N1CCCC(CO)(Cc2ccc(F)cc2)C1 (stereo unspecified) |  | 0.009
CCCCN(C)C(=O)C1CCN(c2nc(C)c3ccccc3n2)CC1 | 0.884 | 
O=C(NCC1CCCN(S(=O)(=O)c2ccc(F)cc2Cl)C1)c1ccco1 (stereo unspecified) | 0.675 | 
COCC(=O)Nc1cc(C(=O)NCC2(c3ccccc3)CCCC2)c2c(c1)nc(-c1ccncc1)n2C | 0.871 | 
O=C(C1CCC1)N1CCC(n2c(-c3ccc4c(c3)OCO4)nc3cc(C(F)(F)F)ccc32)CC1 | 0.559 | 
Cc1ccccc1CN1CCC(CN(CC2CCCO2)C(=O)c2snnc2C)CC1 (stereo unspecified) |  | 0.879
CCOC(=O)CCNC(=O)NC(C)c1cnn(-c2ccccn2)c1C (stereo unspecified) | 0.875 | 
CCOC(=O)C1(Cc2ccccc2F)CCCN(Cc2cccc(C)n2)C1 (stereo unspecified) | 0.797 | 

Whole records, quoted from the list.
`Cc1ccccc1CN1CCC(CN(CC2CCCO2)C(=O)c2snnc2C)CC1` (stereo unspecified) as listed: bacterial growth OD600 (polymyxin B 1 µg/mL): 0.879
`CCOC(=O)C1(Cc2cccc(Cl)c2)CCCN(C(=O)c2cccc3nccnc23)C1` (stereo unspecified) as listed: bacterial growth OD600 (polymyxin B 1 µg/mL): 0.874
